From PMC11251518, “A novel reporter for helicase activity in translation uncovers DDX3X interactions” (RNA, 2024)
Results are given in words; binding and its absence hold for the method and conditions named. Sequences can lack the tags named with a protein.

Biological target: T1, Saccharomyces cerevisiae eIF4E (S. cerevisiae, UniProt P07260 1-213, ^15N labeled)
T1 construct: eIF4E of Saccharomyces cerevisiae; source: E. coli BL21-star, purified (nickel resin, TEV cleavage, m^7G cap resin)
T1 sequence (looked up): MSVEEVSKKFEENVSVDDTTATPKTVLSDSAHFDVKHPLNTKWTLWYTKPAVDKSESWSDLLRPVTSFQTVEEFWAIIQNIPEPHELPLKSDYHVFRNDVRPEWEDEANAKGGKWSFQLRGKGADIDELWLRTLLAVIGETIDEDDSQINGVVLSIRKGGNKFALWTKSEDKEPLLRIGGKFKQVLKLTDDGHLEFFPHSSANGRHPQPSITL
Experiment: NMR titration; ^15N HSQC of 200 μM ^15N S. cerevisiae eIF4E with 250 μM m^7GTP; peptide added to 1 mM; 50 mM phosphate pH 6.5, 50 mM KCl, 298 K, 900 MHz; both purified

binding: no binding (tested: 1 mM)
B1: DDX3X 33–51 peptide (peptide)
peptide: ASKGRYIPPHLRNREATKGAA
